Source: PubChem BioAssay AID1487 (National Center for Advancing Translational Sciences (NCATS), 2009)
The list shows a part of the results. These are further read-outs of the screen, such as a control signal, another cell line or another target. No call is given for them. The list favours compounds with an active or inconclusive main result. Potencies come from curve fits of mixed quality, noted in brackets.

Experiment: qHTS Assay for Modulators of Lamin A Splicing
Settings: HeLa LMNA splicing GFP/RFP minigene ratio, 48 h
Outline: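 Read-out is the ratio of GFP to DsRed2 object intensity, acquired by 488 nm laser-scanning cytometry on HeLa lamin A-EGFP minigene reporter cells. Compound incubation 48 hrs at 37 °C in Opti-MEM with 2% FBS; DMSO 0.5% final.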

[1] = measured here: RFP viability control channel
[2] = measured here: GFP splicing reporter channel

Question: With `CCCCn1c(N)c(-c2nc3ccccc3o2)c2c([N+](=O)[O-])nn(CC)c(=O)c21` as the compound, how does the AC50 [1] read?
Answer: 2.51 µM [rising, partial curve, poor fit]

Question: Which AC50 [2] does the source give for `Cc1cc(=O)n(Cc2ccccc2)c2c1c(C)nn2-c1ccccc1` here?
Answer: 7.08 µM [rising, partial curve]

Question: What about the AC50 [1] of the same compound?
Answer: 12.6 µM [rising, single point]

Question: With `Fc1ccccc1NC(=S)Nc1ccc(Br)cc1` as the compound, how does the AC50 [1] read?
Answer: 35.5 µM [rising, single point]

Question: With `O=C(Nc1nc(-c2ccccc2)cs1)c1ccc(N2CCOCC2)c([N+](=O)[O-])c1` as the compound, how does the AC50 [1] read?
Answer: 2.82 µM [rising, single point]

Question: Which AC50 [2] does the source give for `CC(=O)Oc1ccc(-c2cccc(C(=O)O)c2)cc1` here?
Answer: 12.6 µM [falling, partial curve]

Question: What about the AC50 [1] of the same compound?
Answer: 11.2 µM [falling, partial curve]

Question: With `O=C(C1CCN(S(=O)(=O)c2ccc3ccccc3c2)CC1)N1CCN(c2ncccn2)CC1` as the compound, how does the AC50 [2] read?
Answer: 2.82 µM [rising, partial curve]

Question: What about the AC50 [1] of the same compound?
Answer: 2.51 µM [rising, partial curve]

Question: With `Cc1nnc(SC(C)C#N)n1-c1ccccc1` (configuration not stated) as the compound, how does the AC50 [2] read?
Answer: 1.26 µM [falling, partial curve]

Question: With `CCOc1cc(S(=O)(=O)Nc2ccccc2CC)ccc1Cl` as the compound, how does the AC50 [1] read?
Answer: 11.2 µM [rising, single point]

Question: Which results are given for `CNC(=O)CCCN1C(=O)CCn2nc(-c3cn(C)c4ccccc34)cc21`?
Answer: AC50 [2]: 35.5 µM [rising, partial curve, poor fit]; AC50 [1]: 31.6 µM [rising, partial curve, poor fit]

Question: With `CC(=O)Nc1nnc(SCC(=O)c2ccc3c(c2)Cc2ccccc2-3)s1` as the compound, how does the AC50 [1] read?
Answer: 11.2 µM [rising, partial curve]

Question: What does the source list for `CCOC(=O)Cc1ccc(-c2ccccc2)cc1`?
Answer: AC50 [2]: 7.94 µM [rising, partial curve, poor fit]; AC50 [1]: 35.5 µM [falling, single point]

Question: For `COc1cc(C(=O)Nc2ccc3oc(-c4cccnc4)nc3c2)cc(OC)c1OC`, which AC50 [2] is on record?
Answer: 0.0126 µM [falling, full curve]

Question: Which AC50 [1] does the source give for `CCOC(=O)c1[nH]c2ccc(OC)cc2c1N=CN(C)C` here?
Answer: 20 µM [rising, single point]

Question: Which results are given for `CCOc1cc(CNCCO)cc(Br)c1OCc1ccc(Cl)cc1`?
Answer: AC50 [2]: 25.1 µM [falling, single point]; AC50 [1]: 25.1 µM [falling, partial curve]

Question: With `Cc1ccc(NC(=O)c2c3c(nc4ccccc24)C(=O)N(C2CCCCC2)C3)cc1F` as the compound, how does the AC50 [2] read?
Answer: 11.2 µM [falling, partial curve]

Question: What about the AC50 [1] of the same compound?
Answer: 10 µM [falling, partial curve]
